US11786495B2 (priority 2021, dated 2023)

Experiments:
[1] = format: in vitro ADME, Quail; conditions: no eggs
[2] = pH of aqueous solutions of the dissolved yolks after TEC incubation; format: physicochemical, Quail

## CCOC(=O)CC(O)(CC(=O)OCC)C(=O)OCC [TEC, Triethyl citrate]
[1]; 0.01M TEC in PBS
  Taste of PBS without eggs: Not bitter
[1]; 0.1M TEC in PBS
  Taste of PBS without eggs: Moderate bitter
[1]; 1.0M TEC in PBS
  Taste of PBS without eggs: Very bitter
[2]; eggs incubated in 0.01M TEC
  pH of aqueous solution of dissolved yolk: 4.34
[2]; eggs incubated in 01.M TEC
  pH of aqueous solution of dissolved yolk: 4.37
[2]; eggs incubated in 1.0M TEC
  pH of aqueous solution of dissolved yolk: 4.35

Counter-ions that a name gives are not always drawn. Like-named read-outs stand apart in the source and are kept apart here.
